{"source": "PubChem BioAssay AID504467", "about": "(National Center for Advancing Translational Sciences (NCATS), 2011)", "note": "The campaign covered roughly 330,000 compounds. About 7,700 (2.3%) were called active. Inconclusive means that the source gave no clear call. Such entries were picked first, then a sample of the others. The call rests on the fitted dose curve; in most records, active means well fitted inhibition curve with a large enough effect; inconclusive means small, poorly fitted or top-dose-only effect, or effect the other way; inactive means flat fitted curve, though single readings scatter. Potencies of inconclusive entries are doubtful fits and often do not repeat. On the % scale 0 is the no-effect control and ±100 the full control effect; potency means the concentration at half of the fitted maximal effect.", "data": [{"assay": "qHTS screen for small molecules that inhibit ELG1-dependent DNA repair in human embryonic kidney (HEK293T) cells expressing luciferase-tagged ELG1; further: nearly all actives have a fitted effect of over 55% in size", "conditions": "HEK293T ELG1-luciferase reporter, luminescence, 16 h, DNA damage induced by 5-fluorouridine; activity change, negative = inhibition: at 46.1 µM (top of the series)", "method_in_brief": "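Step one: seed 2,000 cells per well. Step two: pin-transfer compound or DMSO alongside 5-fluorouridine. Step three: incubate 16 hr, 37 °C, 5% CO2. Step four: add ONE-Glo, wait 30 min, read luminescence.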", "values": [{"smiles": "Cn1cccc1CN1CCN(C(=O)COc2ccccc2)CC1", "Potency": "inconclusive: 22.4 µM [inhibitor, single point]"}, {"smiles": "CC1CCN(CC(=O)c2ccc3c(c2)OCCO3)CC1", "Potency": "inconclusive: 13 µM [activator, partial curve]"}, {"smiles": "Cc1ccc(-n2c(O)c(/C=N/N3CCCCC3c3cccnc3)c(=O)[nH]c2=S)cc1", "note": "(stereo not drawn)", "Potency": "inconclusive: 18.4 µM [activator, partial curve, poor fit]"}, {"smiles": "CCCCCC1CC(CC(=O)NC(=S)Nc2ccc([N+](=O)[O-])cc2)C(=O)O1", "note": "(stereo not drawn)", "Potency": "inconclusive: 20.6 µM [inhibitor, partial curve, poor fit]"}, {"smiles": "Cc1ccc(-c2cc(-c3ccc(C)cc3)[n+](C)o2)cc1", "Potency": "inconclusive: 18.4 µM [inhibitor, partial curve, poor fit]"}, {"smiles": "O=C1CN=C(c2ccccc2)c2cc(Cl)ccc2N1", "activity change, negative = inhibition": "inactive: 18.4%"}, {"smiles": "C[C@]12CCC3C(CC[C@H]4C[C@@H](O)CC[C@]34C)[C@H]1C=CC2=O", "note": "(stereo partly drawn)", "Potency": "inconclusive: 18.3 µM [activator, single point]"}, {"smiles": "COC(=O)C1=C(c2c(C)noc2C)C[C@@H]2CC[C@H]1N2C(=O)NC1CC1", "activity change, negative = inhibition": "inactive: 0.865%"}, {"smiles": "O=C(Nc1nccs1)C(Cl)(Cl)Cl", "activity change, negative = inhibition": "inactive: 4.77%"}, {"smiles": "COc1cccc(NC(=O)CN2CC(c3ccccc3)CC2=O)c1", "note": "(stereo not drawn)", "activity change, negative = inhibition": "inactive: 2.13%"}, {"smiles": "CCN(CC)CCN=C(C)c1c(O)n(-c2ccccc2OC)c(=O)[nH]c1=O", "Potency": "inconclusive: 0.58 µM [inhibitor, single point]"}, {"smiles": "Cc1ccccc1-n1c(/C=C/c2ccccn2)nc2ccccc2c1=O", "Potency": "inconclusive: 23.1 µM [inhibitor, partial curve, poor fit]"}, {"smiles": "CC1CN=C(Nc2ccccc2)S1", "note": "(stereo not drawn)", "Potency": "inconclusive: 0.58 µM [activator, full curve, poor fit]"}, {"smiles": "COc1ccc(-c2n[nH]c(=S)n2-c2ccc3c(c2)OCCO3)cc1OC", "Potency": "inconclusive: 25.9 µM [activator, partial curve]"}, {"smiles": "CC1(C)Cc2c(sc3c2C(=O)NC(c2cccnc2)N3)CO1", "note": "(stereo not drawn)", "Potency": "inconclusive: 20.6 µM [activator, partial curve, poor fit]"}, {"smiles": "COc1ccc(CCN2CCCC(CN(C)C(=O)c3cc(C)oc3C)C2)cc1", "note": "(stereo not drawn)", "Potency": "inconclusive: 16.4 µM [activator, partial curve]"}, {"smiles": "COc1ccc(N=Nc2c(O)[nH]c(=S)[nH]c2=O)cc1", "Potency": "inconclusive: 16.4 µM [activator, partial curve]"}, {"smiles": "Nc1c(C(=O)NC2CCCC2)c2nc3ccccc3nc2n1CC1CCCO1", "note": "(stereo not drawn)", "Potency": "active: 14.6 µM"}, {"smiles": "Cc1ccnc(SCc2nc3ccccc3s2)n1", "Potency": "inconclusive: 20.6 µM [activator, partial curve]"}, {"smiles": "O=C1NC(=O)C(CCc2ccccn2)(Cc2ccc3c(c2)OCO3)C(=O)N1CCc1ccccc1", "note": "(stereo not drawn)", "Potency": "inconclusive: 16.4 µM [inhibitor, single point]"}, {"smiles": "Cc1ccc(C(=O)O)cc1N=Nc1c(O)[nH]c(=O)[nH]c1=O", "activity change, negative = inhibition": "inactive: 2.16%"}, {"smiles": "CCCCn1c(O)c(C=NC2CC3CCC2(C)C3(C)C)c(=O)[nH]c1=O", "note": "(stereo not drawn)", "activity change, negative = inhibition": "inactive: -6.14%"}, {"smiles": "O=C1NC(=O)N(c2ccc3c(c2)OCO3)C(=O)/C1=C/c1cccs1", "activity change, negative = inhibition": "inactive: -7.26%"}, {"smiles": "Cc1ccc(C[n+]2c(-c3ccc(C)cc3)cc(-c3ccc(C)cc3)cc2-c2ccc(C)cc2)cc1", "Potency": "inconclusive: 4.47 µM [inhibitor, partial curve, poor fit]"}, {"smiles": "Cc1ccc(-n2c(O)c(C=NCC3CCCO3)c(=O)[nH]c2=O)c(C)c1", "note": "(stereo not drawn)", "Potency": "inconclusive: 6.51 µM [inhibitor, partial curve, poor fit]"}, {"smiles": "CCOC(=O)Cc1csc(NC(=O)c2c(O)c3ccccc3n(CCC(C)C)c2=O)n1", "Potency": "inconclusive: 23.1 µM [inhibitor, single point]"}, {"smiles": "CNc1ccc2oc(C[C@H]3O[C@@]4(CC[C@H]3C)O[C@H]([C@H](C)C(=O)c3ccc[nH]3)[C@H](C)C[C@H]4C)nc2c1C(=O)O", "Potency": "active: 5.8 µM"}, {"smiles": "COc1ccc(C2=NCc3nnc(C)n3-c3ccc(Cl)cc32)cc1Cl", "Potency": "inconclusive: 20.6 µM [activator, partial curve]"}, {"smiles": "COc1cccc(CN2CCN(C(=O)COc3ccc4ccccc4c3)CC2)c1", "activity change, negative = inhibition": "inactive: -9.21%"}, {"smiles": "O=C1NCCOC(=O)[C@H](Cc2ccc(F)cc2)CC/C=C/C[C@@H]1CC(=O)N(CCO)Cc1ccccc1", "Potency": "inconclusive: 29.1 µM [inhibitor, single point]"}, {"smiles": "CCCCCCN=C(C)c1c(O)n(Cc2ccccc2)c(=O)[nH]c1=O", "Potency": "inconclusive: 23.1 µM [inhibitor, single point]"}, {"smiles": "COc1ccc(-c2[nH]ncc2CNC(C)Cc2ccsc2)c(F)c1", "note": "(stereo not drawn)", "activity change, negative = inhibition": "inactive: 5.34%"}, {"smiles": "Cc1ccc2nc(SCC(=O)N/N=C/c3ccco3)cc(C)c2c1", "Potency": "inconclusive: 29.1 µM [inhibitor, single point]"}, {"smiles": "COc1ccc(-c2nc(NC(=O)Cn3c(=O)oc4ccccc43)sc2C)cc1", "Potency": "inconclusive: 29.1 µM [inhibitor, single point]"}, {"smiles": "COc1cccc(CNCCc2cccc(F)c2)c1OC", "Potency": "inconclusive: 1.26 µM [activator, single point]"}, {"smiles": "Cc1nc2ccccc2c(=O)n1-c1ccc(Br)cn1", "Potency": "inconclusive: 23.1 µM [activator, partial curve, poor fit]"}, {"smiles": "CC1CCCCN1Cc1c[nH]c2ccccc12", "note": "(stereo not drawn)", "activity change, negative = inhibition": "inactive: 6.23%"}, {"smiles": "COC(=O)C1=C(c2ccc(F)cc2OCc2ccccc2)C[C@@H]2CC[C@H]1N2C(=O)NCCCOC(C)C", "activity change, negative = inhibition": "inactive: -14.2%"}, {"smiles": "C=CCn1c(O)c(C=Nc2ccc(N(CC)CC)cc2)c(=O)[nH]c1=O", "Potency": "inconclusive: 29.1 µM [activator, partial curve, poor fit]"}, {"smiles": "Cc1cccc(CCNCc2cc3cccc(C)c3[nH]c2=O)c1", "activity change, negative = inhibition": "inactive: 5.09%"}, {"smiles": "CN(C)c1ccc(NC(=O)Oc2ccccc2)cc1", "Potency": "inconclusive: 1.16 µM [activator, partial curve]"}, {"smiles": "CCOC(=O)C(O)(c1ccc(N(CC)S(=O)(=O)c2ccc(C)cc2)cc1)C(F)(F)F", "note": "(stereo not drawn)", "activity change, negative = inhibition": "inactive: -7.07%"}, {"smiles": "C=CCN1C(=O)NC(=O)/C(=C/c2ccc(OCC(=O)Nc3ccc(C)cc3)cc2)C1=O", "Potency": "inconclusive: 20.6 µM [activator, partial curve]"}]}]}
